Reference: the supplement of paper PMC5949888
Most values lie at the floor of the assay. Slopes are relative: functional sequences can read slightly below zero.

test system: Saccharomyces cerevisiae PS128 hsf1 delta, HSF1(1-493) fusion; experiment: growth estimate (transactivation domain function in HSF1 fusion, heat-shock survival) (a.u. (slope of normalised read count over time)); higher = stronger growth at 37°C, i.e. more transactivation activity; settings: library: random library

| Substance | growth estimate |
| --- | --- |
| SLWGPSIGRAPSGRQGTPRL | < -0.25 |
| RDDTKRRA | < -0.25 |
| NPEFQHGLMITRRGFSEARS | < -0.25 |
| RSACCCEWRNIGKFPRCR | < -0.25 |
| VGAFLQQVFVM | < -0.25 |
| LLHPSFV | < -0.25 |
| PRLHILCALPATTVSQALSR | < -0.25 |
| RAWVLDGLRIRTAWQLGEAS | < -0.25 |
| LLISCRF | < -0.25 |
| RMYLIIPETSAYDEQSELNK | < -0.25 |
| VIVSIFGGVDWYRITGDRNP | < -0.25 |
| PIR | < -0.25 |
| DRVGDVAKPAMSALALWILE | < -0.25 |
| ARSSRFGGQRVNF | < -0.25 |
| RRGSQGVPPWSYDRPCTFGN | < -0.25 |
| GQVIRTRPSPRDLSRIRDIG | < -0.25 |
| LPGVDWVVHV | < -0.25 |
| IGRQRYSHLTLKYCQDLHVA | < -0.25 |
| IHLRATDYVYCPCLGCANWR | < -0.25 |
| VSTSQVAHGVWSVTIRAGRR | < -0.25 |
| RHSPPYL | < -0.25 |
| THLV | < -0.25 |
| IVKNVARLQEPSSQI | < -0.25 |
| PKQGVQSENSLDVRESHIAR | < -0.25 |
| RKLVDLVVQIASPIGSVPDR | < -0.25 |
| GLLSTIILRRVVHVNGEVAP | < -0.25 |
| QSPTEA | < -0.25 |

Looked up above.
growth estimate, LPGVDWVVHV is entered as < -0.25
growth estimate, ARSSRFGGQRVNF is entered as < -0.25
growth estimate, PKQGVQSENSLDVRESHIAR is entered as < -0.25
growth estimate, LLISCRF is entered as < -0.25
growth estimate, VIVSIFGGVDWYRITGDRNP is entered as < -0.25

(next part)

| Substance | growth estimate |
| --- | --- |
| PNGN | < -0.25 |
| VSCTGSWVKGARGSRPMSFT | < -0.25 |
| ANLEVAPPLEAHGISANSYS | < -0.25 |
| WERVSGRGCIDRSHGTTTLS | < -0.25 |
| PSVPEGFSVASAGGV | < -0.25 |
| GLGSFEGRDRKLRSRSTSIC | < -0.25 |
| ACPPPHFLHKHPDTNCDHGP | < -0.25 |
| VFYRRVGHIVRLAEAMCHHH | < -0.25 |
| LYYQSGHPGQKCPG | < -0.25 |
| EGRDASFR | < -0.25 |
| PQSI | < -0.25 |
| LKELRWLGRYIAGCVHS | < -0.25 |
| SAWYPTPGARF | -0.239 |
| CDSCPAGQVRRR | < -0.25 |
| GCAPETWSGFKRGGRYRWLC | < -0.25 |
| QSSNGGLGPRHIVSRPTLGD | < -0.25 |
| GRAVSRFQVFAANVRYRTHK | < -0.25 |
| IVRTRRLRTLLILSRQSLRP | < -0.25 |
| IQLRDGDRTKV | < -0.25 |
| VQCPVGSRTDAL | < -0.25 |
| GGGHLGVFGSLTGNFFMGFR | < -0.25 |
| HVLFRTSGVVT | -0.246 |
| VSSCDQTWDRKNKGYFLVCI | < -0.25 |
| GRVVYKEGGPGSEDSSEGSL | < -0.25 |
| RLRECPKV | < -0.25 |
| QSTSLH | -0.245 |
| KGNRIFCN | < -0.25 |

| Substance | growth estimate |
| --- | --- |
| PGQYFIRGVV | < -0.25 |
| SLSVG | < -0.25 |
| PEGFNQKCEAAKLPIKLVAV | < -0.25 |
| LMPD | < -0.25 |
| SSASPFGAGLPRVLIHVGRT | < -0.25 |
| SRCDLVENGLQVASVTTSCC | < -0.25 |
| TYLQGQLNSM | < -0.25 |
| IWFRREYRMGSMDRIETSQH | -0.246 |
| SSLDVVCHSRTCGESRPRKG | < -0.25 |
| KYFGTGGSPWHT | -0.246 |
| FHFVCRMLSGFIIDQLD | < -0.25 |
| VTGFNR | < -0.25 |
| WAQQVNELSLCSNFSRVLDV | -0.248 |
| VCIHGIKEKEMLKSRES | < -0.25 |
| TNRLLLEIPSSSRLYWGTRG | < -0.25 |
| TAAWY | < -0.25 |
| GAGRLGGAAKPRCTLVPNRA | < -0.25 |
| RSPRGCKPGPRFALTLRKGQ | < -0.25 |
| PYCAELTSSMSSCN | < -0.25 |
| RRHVYRLG | < -0.25 |
| CFKPSILVG | < -0.25 |
| RDEPDLNVIRKFFRMSLGLF | < -0.25 |
| TGVVWGQLTGTMLEPS | < -0.25 |
| RSALRR | < -0.25 |
| NKITWCIL | < -0.25 |
| LIKRREVLKWCSPSRLACAQ | < -0.25 |
